In paper PMC8898371:
These are yes or no findings as the source states them, for the method shown. In cells and extracts the contact can be indirect.

Chains of the proteins cited; added tags and fusions are not shown. Lines headed by an entry give the natural chain unless they say otherwise; changes in a name come on top. Residues count along the entry.
UniProt Q8TE04: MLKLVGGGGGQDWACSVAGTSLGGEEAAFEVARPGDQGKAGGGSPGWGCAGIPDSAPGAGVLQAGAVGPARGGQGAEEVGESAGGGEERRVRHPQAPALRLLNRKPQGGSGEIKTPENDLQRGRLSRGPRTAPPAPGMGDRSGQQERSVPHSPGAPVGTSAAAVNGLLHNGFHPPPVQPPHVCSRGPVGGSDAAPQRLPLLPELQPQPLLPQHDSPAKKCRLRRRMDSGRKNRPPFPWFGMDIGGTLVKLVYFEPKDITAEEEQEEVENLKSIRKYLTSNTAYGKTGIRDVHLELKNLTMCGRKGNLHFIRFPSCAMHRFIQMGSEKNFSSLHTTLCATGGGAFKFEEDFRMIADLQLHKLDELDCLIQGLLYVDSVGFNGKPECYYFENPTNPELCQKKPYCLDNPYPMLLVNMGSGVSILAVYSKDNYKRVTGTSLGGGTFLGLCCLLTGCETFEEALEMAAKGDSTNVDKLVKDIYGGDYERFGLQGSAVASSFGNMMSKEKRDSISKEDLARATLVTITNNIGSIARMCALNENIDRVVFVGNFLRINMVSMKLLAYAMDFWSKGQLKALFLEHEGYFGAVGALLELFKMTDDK
UniProt O15169: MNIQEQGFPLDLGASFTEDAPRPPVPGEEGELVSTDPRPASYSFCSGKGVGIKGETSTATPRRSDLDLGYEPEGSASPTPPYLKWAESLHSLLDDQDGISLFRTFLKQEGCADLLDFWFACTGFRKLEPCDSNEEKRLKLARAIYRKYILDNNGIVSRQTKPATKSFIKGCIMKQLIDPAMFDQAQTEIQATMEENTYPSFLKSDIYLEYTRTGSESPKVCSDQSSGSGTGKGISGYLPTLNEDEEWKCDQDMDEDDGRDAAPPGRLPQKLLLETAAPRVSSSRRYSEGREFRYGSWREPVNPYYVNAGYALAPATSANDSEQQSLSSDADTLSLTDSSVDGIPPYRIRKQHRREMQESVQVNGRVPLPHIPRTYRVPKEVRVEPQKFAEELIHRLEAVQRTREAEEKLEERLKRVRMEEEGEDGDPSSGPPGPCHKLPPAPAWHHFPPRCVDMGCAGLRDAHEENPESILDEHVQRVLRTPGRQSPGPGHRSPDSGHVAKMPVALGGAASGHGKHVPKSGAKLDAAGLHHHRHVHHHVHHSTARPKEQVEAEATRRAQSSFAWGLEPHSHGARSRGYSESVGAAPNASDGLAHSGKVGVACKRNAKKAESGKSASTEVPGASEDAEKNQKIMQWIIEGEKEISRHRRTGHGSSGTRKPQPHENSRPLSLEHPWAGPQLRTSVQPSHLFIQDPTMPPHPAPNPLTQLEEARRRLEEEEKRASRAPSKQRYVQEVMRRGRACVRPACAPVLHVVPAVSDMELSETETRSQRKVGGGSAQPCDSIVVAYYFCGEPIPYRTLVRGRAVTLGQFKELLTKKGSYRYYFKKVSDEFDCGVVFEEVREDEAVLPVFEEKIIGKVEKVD
UniProt P49841: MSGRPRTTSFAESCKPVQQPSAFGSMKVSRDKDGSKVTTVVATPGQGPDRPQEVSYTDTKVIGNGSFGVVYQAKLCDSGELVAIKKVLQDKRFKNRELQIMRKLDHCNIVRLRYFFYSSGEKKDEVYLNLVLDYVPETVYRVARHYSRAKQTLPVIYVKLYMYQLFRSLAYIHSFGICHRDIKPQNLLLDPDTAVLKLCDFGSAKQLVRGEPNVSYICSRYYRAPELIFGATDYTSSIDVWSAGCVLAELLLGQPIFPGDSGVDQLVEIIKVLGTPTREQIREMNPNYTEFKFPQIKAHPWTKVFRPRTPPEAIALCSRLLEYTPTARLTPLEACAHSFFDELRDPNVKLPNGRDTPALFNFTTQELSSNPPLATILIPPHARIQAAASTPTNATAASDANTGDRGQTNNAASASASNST
UniProt Q68DV7, residues 24-783: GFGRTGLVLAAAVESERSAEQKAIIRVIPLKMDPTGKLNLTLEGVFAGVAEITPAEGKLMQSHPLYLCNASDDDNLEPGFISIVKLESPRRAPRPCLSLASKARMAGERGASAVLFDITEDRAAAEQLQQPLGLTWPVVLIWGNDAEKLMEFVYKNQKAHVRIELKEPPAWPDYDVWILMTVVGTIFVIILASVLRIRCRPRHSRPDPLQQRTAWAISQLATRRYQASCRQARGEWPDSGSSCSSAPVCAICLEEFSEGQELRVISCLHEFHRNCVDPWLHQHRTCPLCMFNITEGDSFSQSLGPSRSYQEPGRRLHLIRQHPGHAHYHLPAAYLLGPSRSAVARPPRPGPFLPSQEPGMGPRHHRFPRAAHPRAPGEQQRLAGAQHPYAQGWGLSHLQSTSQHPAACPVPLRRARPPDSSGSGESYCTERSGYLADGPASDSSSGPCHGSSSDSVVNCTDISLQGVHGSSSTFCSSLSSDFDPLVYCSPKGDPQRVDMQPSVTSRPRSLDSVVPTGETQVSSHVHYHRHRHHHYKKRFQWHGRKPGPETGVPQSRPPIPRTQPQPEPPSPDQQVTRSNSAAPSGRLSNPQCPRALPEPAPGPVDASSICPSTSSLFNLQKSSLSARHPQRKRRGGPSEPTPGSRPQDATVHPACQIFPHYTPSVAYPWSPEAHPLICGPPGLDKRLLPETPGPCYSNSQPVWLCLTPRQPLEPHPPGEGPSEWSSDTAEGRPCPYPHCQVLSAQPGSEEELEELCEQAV
UniProt P35222: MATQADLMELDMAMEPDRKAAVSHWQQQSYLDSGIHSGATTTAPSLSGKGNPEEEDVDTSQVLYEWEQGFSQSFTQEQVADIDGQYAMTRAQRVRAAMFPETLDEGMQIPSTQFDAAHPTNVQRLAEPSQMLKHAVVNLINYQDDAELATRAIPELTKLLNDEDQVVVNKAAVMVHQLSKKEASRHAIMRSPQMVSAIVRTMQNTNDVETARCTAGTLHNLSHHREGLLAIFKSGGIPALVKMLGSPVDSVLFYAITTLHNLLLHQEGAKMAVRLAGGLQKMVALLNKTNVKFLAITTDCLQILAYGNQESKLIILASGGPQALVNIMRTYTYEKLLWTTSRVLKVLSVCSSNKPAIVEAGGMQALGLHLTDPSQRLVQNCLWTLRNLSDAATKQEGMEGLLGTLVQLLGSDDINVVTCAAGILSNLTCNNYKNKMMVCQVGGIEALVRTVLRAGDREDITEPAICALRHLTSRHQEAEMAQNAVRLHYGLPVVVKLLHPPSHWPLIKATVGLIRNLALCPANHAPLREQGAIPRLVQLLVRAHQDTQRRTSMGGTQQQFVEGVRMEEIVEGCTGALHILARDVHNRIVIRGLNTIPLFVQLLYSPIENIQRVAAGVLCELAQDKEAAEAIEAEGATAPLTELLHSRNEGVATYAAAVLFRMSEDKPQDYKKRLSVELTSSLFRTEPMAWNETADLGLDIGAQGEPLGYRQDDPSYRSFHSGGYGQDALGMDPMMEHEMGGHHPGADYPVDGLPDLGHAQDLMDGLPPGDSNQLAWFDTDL

Molecular target: PANK1 as tested against other components of the Wnt/β-catenin pathway (Figure S3A-F) (UniProt Q8TE04)
Assay: co-IP; PANK1 with other components of the Wnt/β-catenin pathway, Figure S3A-F; cells, tags and bait not told in the text shown

binding, no binding:
AXIN1 (from UniProt O15169 1-862)
GSK3β (from UniProt P49841 1-420)
RNF43 (from UniProt Q68DV7 24-783)
β-catenin (from UniProt P35222 1-781)
